# In PubChem BioAssay AID1671190 (National Center for Advancing Translational Sciences (NCATS), 2021):
# Amino acid sequences for entries named in this document (tags omitted).
# UniProt P18054, whole entry, looked up: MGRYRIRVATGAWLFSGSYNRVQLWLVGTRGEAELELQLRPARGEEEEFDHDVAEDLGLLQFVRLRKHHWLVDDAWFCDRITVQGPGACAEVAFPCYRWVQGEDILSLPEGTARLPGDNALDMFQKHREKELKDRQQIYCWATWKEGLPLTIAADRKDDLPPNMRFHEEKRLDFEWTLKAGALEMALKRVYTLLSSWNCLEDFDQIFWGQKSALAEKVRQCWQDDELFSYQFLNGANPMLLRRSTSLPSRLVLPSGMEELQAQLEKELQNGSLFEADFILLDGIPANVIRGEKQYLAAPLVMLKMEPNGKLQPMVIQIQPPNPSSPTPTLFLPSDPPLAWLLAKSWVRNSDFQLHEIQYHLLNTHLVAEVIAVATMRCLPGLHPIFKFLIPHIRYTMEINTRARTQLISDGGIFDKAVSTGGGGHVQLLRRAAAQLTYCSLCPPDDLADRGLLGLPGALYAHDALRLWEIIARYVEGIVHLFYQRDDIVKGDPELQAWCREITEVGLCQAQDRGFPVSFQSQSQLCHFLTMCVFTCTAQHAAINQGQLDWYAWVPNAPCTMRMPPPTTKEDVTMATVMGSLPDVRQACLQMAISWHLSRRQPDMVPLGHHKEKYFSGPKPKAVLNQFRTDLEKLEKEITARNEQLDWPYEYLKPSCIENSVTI
# Hit rate of the full screen: of about 580,000 compounds, about 6,100 (1.1%) were called active. Inconclusive results, whose numbers are uncertain, are shown with a selection of clear calls. Calls come from the whole dose curve; as a rule, active = well fitted inhibition curve with a large enough effect; inconclusive = small, poorly fitted or top-dose-only effect, or another doubt; inactive = no such curve, though single readings can be large or run the other way. A potency beside an inconclusive call is a rough fit, not a confirmed value.
# Biological target: Polyunsaturated fatty acid lipoxygenase ALOX12 (Homo sapiens) (UniProt P18054)
# Test: Primary qHTS assay for inhibitors of human arachidonate 12S-lipoxygenase (ALOX12): Round 2
# Conditions: purified 12hLO, xylenol orange hydroperoxide absorbance; activity change, negative = inhibition: at 108 µM (top of the series)
# How it was run: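 Purified human 12hLO (150 nM final) in 25 mM Hepes, 0.01% Triton X-100, pH 7.0 was preincubated 15 min at room temperature with compound. Then 40 uM arachidonic acid was added, 30 min. Hydroperoxide was read by Fe-XO absorbance ratio 573/405 nm.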
# % is set by controls: 0 for no effect and ±100 for the full control effect; potency is the fitted concentration of half-maximal effect.
Structure (SMILES),Potency,"activity change, negative = inhibition"
CN1C(=O)/C(=C\c2ccc(Br)s2)C(=O)NC1=S,"inconclusive: 28.2 µM [inhibitor, single point]",
Cc1noc(C)c1C1SCC(=O)Nc2c1c(C)nn2-c1ccccc1 (configuration not stated),"inconclusive: 31.6 µM [inhibitor, partial curve, poor fit]",
Cc1cc(C)cc(N2C(=O)NC(=O)/C(=C\C=C\c3ccco3)C2=O)c1,"inconclusive: 50.1 µM [inhibitor, partial curve, poor fit]",
O=C1NC2(CCN(Cc3ccncc3)C2)OCc2ccccc21 (configuration not stated),,inactive: 58.1% [at 176 µM]
ClCc1cccnc1,active: 11.2 µM,
Cc1cc2ccccn2c1C(C[N+](=O)[O-])c1c(F)cccc1Cl (configuration not stated),"inconclusive: 7.08 µM [inhibitor, full curve, poor fit]",
CCCCn1c(O)c(C(C)=NCCc2c[nH]c3ccccc23)c(=O)[nH]c1=O,,inactive: -71.9%
O=C(CCCc1ccc(N(CCCl)CCCl)cc1)NCc1ccccc1,"inconclusive: 39.8 µM [inhibitor, partial curve, poor fit]",
COc1ccc(C=C2C(=O)NC(=S)NC2=O)cc1,"inconclusive: 50.1 µM [inhibitor, partial curve, poor fit]",
CN1C(=O)NC(=O)C2(Cc3c(ccc4ccccc34)N(C)C2)C1=O (configuration not stated),"inconclusive: 50.1 µM [inhibitor, partial curve, poor fit]",
CCOC(=O)c1c(NC(NC(=O)CF)C(Cl)(Cl)Cl)sc2c1CCCC2 (configuration not stated),"inconclusive: 50.1 µM [inhibitor, partial curve, poor fit]",
O=c1[nH]c(=S)n(CCC2=CCCCC2)c(O)c1C=NCc1cccnc1,,inactive: 0%
CN1CCN(C(=O)COc2ccc(S(=O)(=O)Nc3ccc(F)cc3)cc2)CC1,,inactive: -4.66%
C=Cn1ccnc1P(=S)(c1nccn1C=C)c1nccn1C=C,"inconclusive: 2 µM [inhibitor, full curve]",
Cc1ccc(NC(=O)CN2C(=O)CN=C(c3ccccc3)c3ccccc32)cc1Cl,"inconclusive: 100 µM [inhibitor, partial curve, poor fit]",
O=C(Nc1ccc(Cl)cc1C(=O)c1ccccc1Cl)c1ccco1,,inactive: 0.681%
COc1ccccc1-c1cc([C@H]2CN3CC[C@H]2C[C@@H]3COC(=O)Nc2ccc(C(C)C)cc2)nc(C)n1,active: 44.7 µM,
C=CCn1c(O)c(C(C)=Nc2ccc(C(=O)OCC)cc2)c(=O)[nH]c1=O,active: 5.62 µM,
CCOC(=O)C(NC(=O)CC)(Nc1ccc(C(O)(C(=O)OCC)C(F)(F)F)cc1C)C(F)(F)F (configuration not stated),"inconclusive: 28.2 µM [inhibitor, single point]",
O=C1NC(=O)N(CCC2=CCCCC2)C(=O)/C1=C/c1cccs1,"inconclusive: 112 µM [inhibitor, single point]",
O=C(N/N=C/c1c(O)n(C2CCCCC2)c(=S)[nH]c1=O)c1ccccc1O,"inconclusive: 35.5 µM [inhibitor, partial curve, poor fit]",

Structure (SMILES),Potency,"activity change, negative = inhibition"
COc1ccc(OCC#CCN2CCCCCC2)cc1,,inactive: -22.5%
Cc1cc(C)c(N=Cc2c(O)[nH]c(=O)[nH]c2=O)c(C)c1,,inactive: 1.72%
Cc1ccccc1N1CCN(Cc2ccc3c(c2)OCO3)CC1,"inconclusive: 0.794 µM [inhibitor, full curve]",
CC/C(=N\Nc1ccccc1)c1c(O)n(-c2ccccc2)c(=O)[nH]c1=O,"inconclusive: 112 µM [inhibitor, single point]",
Cc1nn(C)c(C)c1C1SCC(=O)Nc2c1c(C)nn2-c1ccccc1 (configuration not stated),"inconclusive: 89.1 µM [inhibitor, single point]",
C[N+]1(C)CCC(OC(=O)C(c2ccccc2)c2ccccc2)CC1,"inconclusive: 56.2 µM [inhibitor, partial curve, poor fit]",
O=C1NC(=O)N(Cc2ccco2)C(=O)/C1=C\c1cccn1CCOc1ccccc1,"inconclusive: 100 µM [inhibitor, partial curve, poor fit]",
COc1cc(CNCCc2ccc3c(c2)OCO3)ccc1O,"inconclusive: 112 µM [inhibitor, single point]",
O=C(O)COc1ccccc1,,inactive: 0.698%
COc1ccc(CN(C)CC2[C@H]3CNC[C@@H]23)c2cccnc12 (some centres not stated),"inconclusive: 7.94 µM [inhibitor, full curve, poor fit]",
O=C(c1ccc(CNS(=O)(=O)c2ccccc2)cc1)N1CCC2(CC1)OCCO2,,inactive: -19%
COc1cc(/C=C2\C(=O)NC(=O)N(c3ccccc3)C2=O)c([N+](=O)[O-])cc1OC,"inconclusive: 56.2 µM [inhibitor, partial curve, poor fit]",
COc1ccc(CNCCc2c[nH]c3ccc(OC)cc23)cc1,"inconclusive: 39.8 µM [inhibitor, partial curve, poor fit]",
CN(C)c1ccc(C=C2C(=O)NC(=O)NC2=O)cc1,"inconclusive: 100 µM [inhibitor, single point]",
Cc1cc(/C=C2\C(=O)NC(=O)N(c3ccc(Br)cc3)C2=O)c(C)n1-c1cc(C(=O)O)cc(C(=O)O)c1,"inconclusive: 44.7 µM [inhibitor, partial curve, poor fit]",
CCOC(=O)[C@]12Cc3c(cc(OC)c(OC)c3OC)[C@H]1N(C)C(=O)c1ccccc12,,inactive: 91.5%
COc1cc2c(cc1OCc1ccccc1)N(C(=O)c1cc3ccccc3[nH]1)CC21CCN(C)CC1,"inconclusive: 7.94 µM [inhibitor, full curve]",
CCC1(c2ccc(C)cc2)C(=O)NC(=S)NC1=O,"inconclusive: 56.2 µM [inhibitor, partial curve, poor fit]",
COC(=O)C(O)(c1ccc(NC(=S)NC(=O)c2ccccc2)cc1)C(F)(F)F (configuration not stated),"inconclusive: 31.6 µM [inhibitor, partial curve, poor fit]",
Cc1cc(C)n2c(Br)c(CN3CC4CC(C3)c3cccc(=O)n3C4)nc2n1 (configuration not stated),"inconclusive: 35.5 µM [inhibitor, partial curve, poor fit]",
COc1ccc(-n2c(/C=C/c3ccc(O)c(OC)c3)nc3ccccc3c2=O)cc1,"inconclusive: 44.7 µM [inhibitor, partial curve, poor fit]",

# Entries of single compounds from above.
# Cc1nn(C)c(C)c1C1SCC(=O)Nc2c1c(C)nn2-c1ccccc1 (configuration not stated) is listed with Potency: inconclusive: 89.1 µM [inhibitor, single point]
# COc1ccc(-n2c(/C=C/c3ccc(O)c(OC)c3)nc3ccccc3c2=O)cc1 is listed with Potency: inconclusive: 44.7 µM [inhibitor, partial curve, poor fit]
